Experimental data taken from US6448293B1, “Diphenyl ether compounds useful in therapy” (Pfizer Inc., priority 2000, dated 2002).
Some entries share one result that the patent states for a list of compounds.

Protein sequences, listed by entry. Tags and fused reporters are not part of them.
UniProt P31645, whole entry: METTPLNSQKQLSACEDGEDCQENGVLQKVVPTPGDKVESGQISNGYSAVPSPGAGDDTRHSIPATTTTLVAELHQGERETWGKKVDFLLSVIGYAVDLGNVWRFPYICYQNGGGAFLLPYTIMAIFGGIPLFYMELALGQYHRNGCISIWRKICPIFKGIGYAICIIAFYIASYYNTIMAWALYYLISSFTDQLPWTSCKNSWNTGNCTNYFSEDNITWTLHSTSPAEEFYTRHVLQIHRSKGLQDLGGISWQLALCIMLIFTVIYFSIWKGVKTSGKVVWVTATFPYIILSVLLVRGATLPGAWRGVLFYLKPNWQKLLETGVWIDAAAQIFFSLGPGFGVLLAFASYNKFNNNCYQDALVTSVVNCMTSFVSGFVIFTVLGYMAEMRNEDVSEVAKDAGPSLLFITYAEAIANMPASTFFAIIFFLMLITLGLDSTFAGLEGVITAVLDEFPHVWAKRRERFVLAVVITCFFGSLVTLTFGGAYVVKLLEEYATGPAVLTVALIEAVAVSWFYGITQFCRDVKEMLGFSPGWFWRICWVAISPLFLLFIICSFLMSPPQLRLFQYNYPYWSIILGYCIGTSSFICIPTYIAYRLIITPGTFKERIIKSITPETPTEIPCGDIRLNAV

Target: T1, human serotonin transporter (hSERT) (Homo sapiens, UniProt P31645)
T1 construct: expressed in transfected cells; host or cells: HEK-293 (human embryonic kidney cells), stably transfected
Assay: Inhibition of 3H-Serotonin uptake into HEK-293 cells stably transfected with hSERT
Assay type: cell-based
Details: for fold as potent in the inhibition of serotonin re-uptake than in the inhibition of dopamine re-uptake and noradrenaline re-uptake: selectivity of hSERT over both hDAT and hNET uptake inhibition; for IC50: read-out: serotonin re-uptake inhibition (SRI) IC50, HEK-293 cells transfected with hSERT, 3H-Serotonin uptake, 5 minutes incubation, room temperature
Protocol: A number of compounds were tested for biological activity by their ability to inhibit the uptake of serotonin by human serotonin transporters as follows.
Human embryonic kidney cells (HEK-293) stably transfected with either the human serotonin transporter (hSERT), noradrenaline transporter (hNET) or dopamine transporter (hDAT) were cultured under standard cell culture techniques (cells were grown at 37° C and 5% CO2 in DMEM-culture media (supplemented with 10% dialysed foetal calf serum (FCS), 2 mM 1-glutamine and 250 μg/ml geneticin)). Cells were harvested for the assay to yield a cell suspension of 750,000 cells/ml.
(i) Determination of inhibitor potency
All test compounds were dissolved in 100% DMSO and diluted down in assay buffer to give appropriate test concentrations. Assays were carried out in 96-well filter bottom plates. Cells (7500 cells/assay well) were pre-incubated in standard assay buffer containing either test compound, standard inhibitor or compound vehicle (1 % DMSO) for 5 minutes. Reactions were started by addition of either ^3H-Serotonin, ^3H-Noradrenaline or ^3H-Dopamine substrates. All reactions were carried out at room temperature in a shaking incubator. Incubation times were 5 minutes for the hSERT and hDAT assays and 15 minutes for the hNET assay. Reactions were terminated by removal of the reaction mixture using a vacuum manifold followed by rapid washing with ice cold assay buffer. The quantity of ^3H-substrate incorporated into the cells was then quantified.
Assay plates were dried in a microwave oven, scintillation fluid added, and radioactivity measured.
(iii) Standard Assay Buffer Composition:
Note: The pH of the buffer was adjusted to 7.40 with 1 M NaOH before addition of CaCI2 and pargyline.
(iv) Summary of Assay Parameters

Row | Structure (SMILES) | fold as potent in the inhibition of serotonin re-uptake than in the inhibition of dopamine re-uptake and noradrenaline re-uptake | fold as potent in the inhibition of serotonin re-uptake than in the inhibition of dopamine re-uptake or noradrenaline re-uptake (selectivity of hSERT over hDAT or hNET uptake inhibition) | IC50 [nM]
1 | CN(C)Cc1cc(Br)ccc1Oc1ccc(C(F)(F)F)cc1 [Example 3] | more than 100 fold | – | –
2 | CCS(=O)(=O)Nc1ccc(Oc2ccc(SC)cc2)c(CN(C)C)c1 [Example 138, N-{3-[(Dimethylamino)methyl]-4-[4-(methylsulfanyl)phenoxy]phenyl}-ethanesulfonamide] | – | more than 10 fold | –
3 | CSc1ccc(Oc2ccc(NS(=O)(=O)C(F)(F)F)cc2CN(C)C)cc1 [Example 140, N-{3-[(Dimethylamino)methyl]-4-[4-(methylsulfanyl)phenoxy]phenyl}-(trifluoro)methanesulfonamide] | more than 100 fold | – | ≤ 100
4 | CNCc1cc(-n2ccnn2)ccc1Oc1ccc(SC)cc1 [Example 181, N-Methyl-N-[2-[4-(methylsulfanyl)phenoxy]-5-(1 H-1,2,3-triazol-1-yl)benzyl]amine] | more than 100 fold | – | ≤ 100
5 | CNCc1cc(-n2nccn2)ccc1Oc1ccc(SC)cc1 [Example 182, N-methyl-N-[2-[4-(methylsulfanyl)phenoxy]-5-(2 H-1,2,3-triazol-2-yl)benzyl]amine] | more than 100 fold | – | ≤ 100
6 | CSc1ccc(Oc2ccc(-n3nccn3)cc2CN(C)C)cc1 [Example 183, N,N-Dimethyl-N-[2-[4-(methylsulfanyl)phenoxy]-5-(2 H-1,2,3-triazol-2-yl)benzyl]amine] | more than 100 fold | – | ≤ 100
7 | CNCc1cc(-n2ccnc2)ccc1Oc1ccc(SC)cc1 [Example 185, N-[2-[4-(Methylsulfanyl)phenoxy]-5-(1 H-imidazol-1-yl)benzyl]-N-methylamine] | more than 100 fold | – | ≤ 100
8 | CNCc1cc(-n2cncn2)ccc1Oc1ccc(SC)cc1 [Example 187, N-Methyl-N-[2-[4-(methylsulfanyl)phenoxy]-5-(1 H-1,2,4-triazol-1-yl)benzyl]amine] | more than 100 fold | – | ≤ 100
9 | CSc1ccc(Oc2ccc(-n3cncn3)cc2CN(C)C)cc1 [Example 188, N,N-dimethyl-N-[2-[4-(methylsulfanyl)phenoxy]-5-(1 H-1,2,4-triazol-1-yl)benzyl]-amine] | more than 100 fold | – | –
10 | CSc1ccc(Oc2ccc(-n3cnnc3)cc2CN(C)C)cc1 [Example 189, N-[2-[4-(Methylsulfanyl)phenoxy]-5-(4H-1,2,4-triazol-4-yl)benzyl]-N,N-dimethylamine] | more than 100 fold | – | ≤ 100
